Results as given in article doi:10.1101/2020.04.07.029751.
Results are given in words; binding and its absence hold for the method and conditions named. In cells and extracts the contact can be indirect. Some entries that bind do so weakly or less than the wild type.

By UniProt entry, the sequences of proteins in these tests, tags left out.
UniProt O09106: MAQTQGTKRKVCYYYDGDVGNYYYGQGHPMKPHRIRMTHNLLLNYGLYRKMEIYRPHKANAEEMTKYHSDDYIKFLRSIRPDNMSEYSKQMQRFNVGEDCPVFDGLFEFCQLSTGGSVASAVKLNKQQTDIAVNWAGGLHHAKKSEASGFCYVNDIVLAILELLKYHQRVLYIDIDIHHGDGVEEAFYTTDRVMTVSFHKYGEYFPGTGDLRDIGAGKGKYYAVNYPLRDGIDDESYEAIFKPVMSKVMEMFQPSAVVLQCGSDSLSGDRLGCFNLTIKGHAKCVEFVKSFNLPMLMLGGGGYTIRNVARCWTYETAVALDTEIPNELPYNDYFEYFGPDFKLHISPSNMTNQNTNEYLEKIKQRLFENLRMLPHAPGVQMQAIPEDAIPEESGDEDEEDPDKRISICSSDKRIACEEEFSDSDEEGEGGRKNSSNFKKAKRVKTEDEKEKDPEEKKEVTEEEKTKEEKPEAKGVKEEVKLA

Molecular target: T1, DNTTIP1 (mouse (endogenous in mESCs)) (UniProt Q99LB0)
T1 sequence: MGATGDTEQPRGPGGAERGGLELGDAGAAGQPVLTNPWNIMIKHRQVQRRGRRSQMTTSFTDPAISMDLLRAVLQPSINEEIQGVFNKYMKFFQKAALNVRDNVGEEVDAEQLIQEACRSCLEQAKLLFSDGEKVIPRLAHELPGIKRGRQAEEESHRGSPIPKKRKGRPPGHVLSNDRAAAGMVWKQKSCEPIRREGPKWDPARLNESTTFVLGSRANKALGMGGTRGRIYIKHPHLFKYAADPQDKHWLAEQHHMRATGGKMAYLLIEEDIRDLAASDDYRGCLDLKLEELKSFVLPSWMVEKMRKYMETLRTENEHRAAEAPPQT
Assay: co-IP

- binding: binds
Substance: HDAC1 (from UniProt O09106 1-482) (enzyme)
